In the supplement of paper PMC10849652:
This is one part of the list.

By UniProt entry, the sequences of proteins in these tests, tags left out. Where a name states a change or a piece, a line headed by the entry shows the natural chain unless it says otherwise.
UniProt Q9NX57: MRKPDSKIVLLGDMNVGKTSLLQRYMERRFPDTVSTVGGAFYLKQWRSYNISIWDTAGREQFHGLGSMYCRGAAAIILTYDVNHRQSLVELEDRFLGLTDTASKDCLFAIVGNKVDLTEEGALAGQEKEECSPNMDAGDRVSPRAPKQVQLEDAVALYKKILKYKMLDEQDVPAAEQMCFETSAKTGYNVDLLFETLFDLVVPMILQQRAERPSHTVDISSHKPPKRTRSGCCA
UniProt P54725: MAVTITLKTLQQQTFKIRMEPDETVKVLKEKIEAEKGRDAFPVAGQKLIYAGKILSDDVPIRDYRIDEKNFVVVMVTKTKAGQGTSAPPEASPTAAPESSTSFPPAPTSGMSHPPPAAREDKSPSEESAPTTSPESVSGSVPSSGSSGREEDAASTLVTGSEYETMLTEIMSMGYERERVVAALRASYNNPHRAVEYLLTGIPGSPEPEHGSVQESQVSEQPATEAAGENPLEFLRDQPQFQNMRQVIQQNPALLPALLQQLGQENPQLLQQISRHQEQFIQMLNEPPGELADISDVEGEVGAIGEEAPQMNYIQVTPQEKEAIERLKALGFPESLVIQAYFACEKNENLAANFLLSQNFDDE
UniProt Q09028, whole entry, looked up: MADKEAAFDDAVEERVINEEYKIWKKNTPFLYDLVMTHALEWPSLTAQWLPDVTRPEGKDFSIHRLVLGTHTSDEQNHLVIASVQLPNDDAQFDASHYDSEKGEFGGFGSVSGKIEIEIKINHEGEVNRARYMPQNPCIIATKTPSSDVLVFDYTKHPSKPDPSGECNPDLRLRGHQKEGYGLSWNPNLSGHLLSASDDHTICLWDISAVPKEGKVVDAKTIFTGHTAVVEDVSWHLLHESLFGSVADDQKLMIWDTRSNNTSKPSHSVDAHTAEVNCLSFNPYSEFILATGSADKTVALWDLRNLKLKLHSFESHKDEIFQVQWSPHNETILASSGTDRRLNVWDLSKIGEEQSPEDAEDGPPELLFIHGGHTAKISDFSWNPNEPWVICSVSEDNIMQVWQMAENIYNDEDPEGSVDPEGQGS
UniProt Q9P0K7: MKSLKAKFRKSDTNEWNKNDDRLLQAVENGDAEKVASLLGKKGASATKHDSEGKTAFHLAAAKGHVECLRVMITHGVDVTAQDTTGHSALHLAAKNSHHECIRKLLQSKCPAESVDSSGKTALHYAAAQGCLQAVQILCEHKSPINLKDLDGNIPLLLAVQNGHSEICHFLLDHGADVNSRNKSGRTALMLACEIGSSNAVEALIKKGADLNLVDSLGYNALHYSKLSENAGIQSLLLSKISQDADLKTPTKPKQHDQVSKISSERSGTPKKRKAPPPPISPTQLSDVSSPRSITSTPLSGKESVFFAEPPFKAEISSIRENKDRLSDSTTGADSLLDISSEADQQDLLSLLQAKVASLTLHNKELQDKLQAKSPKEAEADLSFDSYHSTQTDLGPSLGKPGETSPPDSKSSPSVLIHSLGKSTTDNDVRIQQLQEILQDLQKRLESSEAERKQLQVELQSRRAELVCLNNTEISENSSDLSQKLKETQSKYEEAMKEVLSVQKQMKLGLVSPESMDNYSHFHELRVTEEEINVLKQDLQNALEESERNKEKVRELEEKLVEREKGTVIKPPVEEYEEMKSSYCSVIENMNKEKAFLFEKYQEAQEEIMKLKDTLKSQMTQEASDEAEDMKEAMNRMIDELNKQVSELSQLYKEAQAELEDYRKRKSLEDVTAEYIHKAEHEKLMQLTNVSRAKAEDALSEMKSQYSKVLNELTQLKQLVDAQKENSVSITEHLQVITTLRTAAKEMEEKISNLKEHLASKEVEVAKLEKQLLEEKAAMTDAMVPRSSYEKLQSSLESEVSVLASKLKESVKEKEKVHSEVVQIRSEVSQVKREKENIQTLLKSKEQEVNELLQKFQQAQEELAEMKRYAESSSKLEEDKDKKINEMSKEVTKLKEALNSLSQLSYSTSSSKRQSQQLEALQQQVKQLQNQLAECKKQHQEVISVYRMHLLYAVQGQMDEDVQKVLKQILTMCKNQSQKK
UniProt Q9NTZ6: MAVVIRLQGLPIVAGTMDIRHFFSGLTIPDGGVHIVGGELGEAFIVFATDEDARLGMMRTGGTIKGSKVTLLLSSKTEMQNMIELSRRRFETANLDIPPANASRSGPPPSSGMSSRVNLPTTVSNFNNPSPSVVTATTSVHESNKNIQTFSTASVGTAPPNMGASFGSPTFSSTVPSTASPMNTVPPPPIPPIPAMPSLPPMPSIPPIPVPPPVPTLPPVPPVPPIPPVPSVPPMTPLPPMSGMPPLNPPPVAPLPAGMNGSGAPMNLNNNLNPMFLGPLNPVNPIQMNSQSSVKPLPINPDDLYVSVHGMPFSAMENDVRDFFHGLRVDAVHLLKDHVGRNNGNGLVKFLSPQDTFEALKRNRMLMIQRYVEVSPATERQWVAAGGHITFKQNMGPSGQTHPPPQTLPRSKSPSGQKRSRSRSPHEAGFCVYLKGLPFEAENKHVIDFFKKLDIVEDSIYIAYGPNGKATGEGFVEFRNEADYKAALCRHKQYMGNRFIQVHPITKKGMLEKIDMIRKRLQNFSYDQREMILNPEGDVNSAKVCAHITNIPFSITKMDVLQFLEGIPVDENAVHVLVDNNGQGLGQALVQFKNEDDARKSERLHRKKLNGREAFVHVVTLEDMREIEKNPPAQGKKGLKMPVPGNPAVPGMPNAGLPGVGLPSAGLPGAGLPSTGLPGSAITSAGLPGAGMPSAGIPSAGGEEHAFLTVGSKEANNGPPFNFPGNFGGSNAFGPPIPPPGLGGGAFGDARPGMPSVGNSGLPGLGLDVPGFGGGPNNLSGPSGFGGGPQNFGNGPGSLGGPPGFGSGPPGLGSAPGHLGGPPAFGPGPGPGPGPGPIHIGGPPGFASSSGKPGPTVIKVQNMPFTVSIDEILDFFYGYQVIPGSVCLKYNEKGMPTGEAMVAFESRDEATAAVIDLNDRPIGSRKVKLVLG
UniProt P61006: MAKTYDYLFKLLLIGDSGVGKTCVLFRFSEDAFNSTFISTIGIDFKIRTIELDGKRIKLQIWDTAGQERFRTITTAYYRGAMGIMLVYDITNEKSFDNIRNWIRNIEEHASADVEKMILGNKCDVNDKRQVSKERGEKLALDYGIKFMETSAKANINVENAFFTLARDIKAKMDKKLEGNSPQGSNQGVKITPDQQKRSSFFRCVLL
UniProt Q9Y3P9: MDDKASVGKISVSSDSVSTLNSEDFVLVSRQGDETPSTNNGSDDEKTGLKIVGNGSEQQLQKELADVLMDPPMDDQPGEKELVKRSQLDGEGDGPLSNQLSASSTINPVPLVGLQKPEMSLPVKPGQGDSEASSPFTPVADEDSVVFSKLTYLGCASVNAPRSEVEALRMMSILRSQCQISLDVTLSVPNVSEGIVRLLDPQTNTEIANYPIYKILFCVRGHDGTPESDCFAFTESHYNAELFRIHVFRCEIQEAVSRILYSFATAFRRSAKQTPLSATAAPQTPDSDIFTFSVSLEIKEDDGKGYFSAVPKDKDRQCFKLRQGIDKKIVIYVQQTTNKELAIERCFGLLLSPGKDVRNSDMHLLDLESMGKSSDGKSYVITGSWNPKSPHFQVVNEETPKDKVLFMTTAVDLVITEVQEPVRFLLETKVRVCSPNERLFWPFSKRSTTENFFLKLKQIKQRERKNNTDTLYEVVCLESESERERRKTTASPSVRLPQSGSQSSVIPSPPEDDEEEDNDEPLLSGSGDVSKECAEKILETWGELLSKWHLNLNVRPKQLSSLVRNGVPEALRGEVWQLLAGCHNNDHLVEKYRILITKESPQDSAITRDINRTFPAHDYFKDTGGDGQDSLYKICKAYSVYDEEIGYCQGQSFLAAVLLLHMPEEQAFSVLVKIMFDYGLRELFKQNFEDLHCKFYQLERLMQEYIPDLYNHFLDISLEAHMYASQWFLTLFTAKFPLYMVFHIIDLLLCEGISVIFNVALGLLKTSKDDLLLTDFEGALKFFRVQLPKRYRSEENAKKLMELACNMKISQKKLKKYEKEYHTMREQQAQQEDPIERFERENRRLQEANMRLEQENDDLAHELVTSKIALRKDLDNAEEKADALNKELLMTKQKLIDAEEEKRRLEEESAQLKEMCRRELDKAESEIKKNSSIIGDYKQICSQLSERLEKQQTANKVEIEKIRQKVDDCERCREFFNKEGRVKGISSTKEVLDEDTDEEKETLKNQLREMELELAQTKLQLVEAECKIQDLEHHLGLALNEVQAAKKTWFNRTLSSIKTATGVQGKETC
UniProt Q92696: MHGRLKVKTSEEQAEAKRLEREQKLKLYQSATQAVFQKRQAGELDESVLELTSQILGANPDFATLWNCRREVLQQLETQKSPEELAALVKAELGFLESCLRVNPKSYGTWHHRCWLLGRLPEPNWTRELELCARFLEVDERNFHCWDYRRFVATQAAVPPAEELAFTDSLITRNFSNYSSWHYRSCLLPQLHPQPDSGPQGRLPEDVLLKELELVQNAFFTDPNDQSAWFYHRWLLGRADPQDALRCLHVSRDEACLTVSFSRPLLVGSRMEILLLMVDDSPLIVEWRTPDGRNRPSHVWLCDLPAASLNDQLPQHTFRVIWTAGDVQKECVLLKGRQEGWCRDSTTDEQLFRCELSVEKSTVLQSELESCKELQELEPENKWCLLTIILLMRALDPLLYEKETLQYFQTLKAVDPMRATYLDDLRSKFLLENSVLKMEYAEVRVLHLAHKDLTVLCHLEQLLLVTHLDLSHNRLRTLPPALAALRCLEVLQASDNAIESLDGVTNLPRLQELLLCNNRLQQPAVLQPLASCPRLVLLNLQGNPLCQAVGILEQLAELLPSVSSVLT
UniProt Q15907: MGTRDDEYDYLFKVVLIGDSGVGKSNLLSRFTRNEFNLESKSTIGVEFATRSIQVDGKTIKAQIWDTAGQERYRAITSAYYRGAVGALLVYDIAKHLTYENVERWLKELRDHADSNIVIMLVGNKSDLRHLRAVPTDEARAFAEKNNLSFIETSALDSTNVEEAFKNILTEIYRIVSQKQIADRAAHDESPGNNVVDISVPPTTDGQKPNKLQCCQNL
UniProt Q15291, whole entry, looked up: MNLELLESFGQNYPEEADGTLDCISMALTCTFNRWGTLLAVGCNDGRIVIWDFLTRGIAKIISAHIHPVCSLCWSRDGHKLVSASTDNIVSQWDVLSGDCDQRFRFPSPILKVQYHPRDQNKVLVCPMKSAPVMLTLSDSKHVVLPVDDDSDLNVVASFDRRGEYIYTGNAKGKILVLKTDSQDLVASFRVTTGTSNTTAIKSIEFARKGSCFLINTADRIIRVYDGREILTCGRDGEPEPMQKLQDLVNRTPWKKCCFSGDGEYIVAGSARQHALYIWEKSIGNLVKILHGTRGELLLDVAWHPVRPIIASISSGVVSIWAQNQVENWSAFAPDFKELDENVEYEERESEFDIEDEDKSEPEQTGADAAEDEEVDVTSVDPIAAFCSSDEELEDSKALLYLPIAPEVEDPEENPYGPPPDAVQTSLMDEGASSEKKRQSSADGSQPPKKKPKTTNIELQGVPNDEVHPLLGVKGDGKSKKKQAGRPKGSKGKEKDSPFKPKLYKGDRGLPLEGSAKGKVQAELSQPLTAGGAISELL
UniProt P61020: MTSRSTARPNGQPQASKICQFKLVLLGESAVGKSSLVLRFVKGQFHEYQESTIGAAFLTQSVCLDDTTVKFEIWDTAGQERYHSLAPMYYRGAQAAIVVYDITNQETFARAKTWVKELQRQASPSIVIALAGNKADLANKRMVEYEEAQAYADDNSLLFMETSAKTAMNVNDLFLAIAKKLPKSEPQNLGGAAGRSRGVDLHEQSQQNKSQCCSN
UniProt P52306: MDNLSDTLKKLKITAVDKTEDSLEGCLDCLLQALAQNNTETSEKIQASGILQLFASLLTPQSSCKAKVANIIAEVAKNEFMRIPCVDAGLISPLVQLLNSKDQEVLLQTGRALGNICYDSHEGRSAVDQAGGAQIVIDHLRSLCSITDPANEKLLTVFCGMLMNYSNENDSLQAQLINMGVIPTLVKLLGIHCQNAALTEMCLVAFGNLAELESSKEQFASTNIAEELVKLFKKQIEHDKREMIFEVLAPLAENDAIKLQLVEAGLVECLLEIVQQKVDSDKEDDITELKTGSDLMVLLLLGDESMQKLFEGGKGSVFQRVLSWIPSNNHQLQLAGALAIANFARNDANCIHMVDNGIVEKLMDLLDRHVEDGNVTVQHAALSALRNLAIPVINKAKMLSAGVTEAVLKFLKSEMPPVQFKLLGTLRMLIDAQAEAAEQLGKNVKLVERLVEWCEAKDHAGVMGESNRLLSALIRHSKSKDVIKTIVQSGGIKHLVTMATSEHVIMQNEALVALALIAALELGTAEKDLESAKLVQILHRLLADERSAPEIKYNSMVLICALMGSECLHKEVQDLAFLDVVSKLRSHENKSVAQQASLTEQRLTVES

Columns and labels:
Test in all cases: log2 fold change, soluble protein after heating vs DMSO (PISA); higher = thermal stabilisation; K562 cells, 10 uM, 30 min; active = over 0.2 and 3.5 SD of the protein, either way, in both replicates (recomputed)
[1] = compound: C1=CC=C(C=C1)[C@H](COC2=CC3=C(C=C2)NC(=O)N3)NC(=O)C4=CC=CN(C4=O)CC5=CC(=C(C=C5)F)F
How it was run: (§1)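 K562 cells at 2×10^6 cells/mL were treated for 30 min with 10 μM compound, and aliquots were heated for 3 min over 48°C-58°C before pooling. Extraction used PBS with 0.5% NP-40 at 4°C, and soluble protein was the supernatant after 21,000xg for 90 min, measured by TMTpro 16plex LC-MS/MS with channel sums equalised. Thermal stability values, relative to control samples and from duplicates, are log2 fold changes.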

[2] = compound: CC1=C(SC2=C1C(=N[C@H](C3=NN=C(N32)C)CC(=O)N)C4=CC=C(C=C4)Cl)C
How it was run: as §1

[3] = compound: CC1=C2C(=CC=C1)N=C(N(C2=O)C3=CC=CC=C3C)CN4C=NC5=C(N=CN=C54)N
How it was run: as §1

[4] = compound: Cc1sc2c(c1C)C(c1ccc(Cl)cc1)=N[C@@H](CC(=O)OC(C)(C)C)c1nnc(C)n1-2
How it was run: as §1

[5] = compound: c1ccc([C@@H]2C[C@H]2NC2CCNCC2)cc1
How it was run: as §1

Measured: log2 fold change

RAB20 (UniProt Q9NX57)
inactive: [1] -0.032 | [2] 0.008 | [3] 0.001 | [4] 0.003 | [5] 0.013

RAD23A (UniProt P54725)
inactive: [1] 0.016 | [2] 0.035 | [3] 0.055 | [4] 0.014 | [5] 0.017

RBBP4 (UniProt Q09028)
inactive: [1] -0.01 | [2] 0.013 | [3] 0.031 | [4] -0.046 | [5] 0.014

RAI14 isoform 2 (UniProt Q9P0K7)
inactive: [1] 0.042 | [2] 0.121 | [3] 0.136 | [4] 0.198 | [5] 0.123

RBM12 (UniProt Q9NTZ6)
inactive: [1] -0.039 | [2] 0.023 | [3] 0.077 | [4] -0.064 | [5] -0.006

RAB8A isoform 2 (UniProt P61006)
inactive: [1] -0.005 | [2] 0.005 | [3] -0.041 | [4] -0.002 | [5] 0.022

RAC1 (UniProt P63000)
inactive: [1] -0.046 | [2] 0.017 | [3] -0.111 | [4] -0.098 | [5] 0.033

RAB3GAP1 (UniProt Q15042)
inactive: [1] -0.083 | [2] -0.084 | [3] 0.061 | [4] 0.046 | [5] 0.008

RAC3 (UniProt P60763)
inactive: [1] -0.006 | [2] 0.028 | [3] 0.029 | [4] -0.025 | [5] -0.147

RABGAP1 (UniProt Q9Y3P9)
inactive: [1] -0.026 | [2] 0.054 | [3] 0.072 | [4] 0.022 | [5] 0.004

RAF1 isoform 2 (UniProt P04049)
inactive: [1] -0.08 | [2] 0.201 | [3] 0.222 | [4] -0.07 | [5] -0.105

RABGGTA (UniProt Q92696)
inactive: [1] -0.105 | [2] 0.084 | [3] 0.035 | [4] 0.014 | [5] -0.024

2 successive records already listed, quoted:
RAB3GAP1 (UniProt Q15042)
inactive: [1] -0.083 | [2] -0.084 | [3] 0.061 | [4] 0.046 | [5] 0.008

RAC3 (UniProt P60763)
inactive: [1] -0.006 | [2] 0.028 | [3] 0.029 | [4] -0.025 | [5] -0.147

The results go on.

RAB11B (UniProt Q15907)
inactive: [1] 0.02 | [2] -0.023 | [3] -0.085 | [4] 0.057 | [5] 0.077

RBBP5 (UniProt Q15291)
inactive: [1] 0.044 | [2] -0.016 | [3] -0.023 | [4] -0.008 | [5] 0.04

RAB5B (UniProt P61020)
inactive: [1] -0.005 | [2] -0.029 | [3] -0.025 | [4] -0.031 | [5] 0.022

RAP1GDS1 isoform 5 (UniProt P52306)
inactive: [1] -0.093 | [2] -0.01 | [3] 0.119 | [4] -0.001 | [5] -0.009
